Reference: publication PMC5765009
Results are given in words; binding and its absence hold for the method and conditions named. Binding seen in cells or lysates may run through a third protein. Some results given as binding are weak or reduced against the parent protein; the word gives no strength.

The chains behind the UniProt entries cited, without tags or fusion partners. Residues count along the entry.
UniProt P11021, residues 19-654: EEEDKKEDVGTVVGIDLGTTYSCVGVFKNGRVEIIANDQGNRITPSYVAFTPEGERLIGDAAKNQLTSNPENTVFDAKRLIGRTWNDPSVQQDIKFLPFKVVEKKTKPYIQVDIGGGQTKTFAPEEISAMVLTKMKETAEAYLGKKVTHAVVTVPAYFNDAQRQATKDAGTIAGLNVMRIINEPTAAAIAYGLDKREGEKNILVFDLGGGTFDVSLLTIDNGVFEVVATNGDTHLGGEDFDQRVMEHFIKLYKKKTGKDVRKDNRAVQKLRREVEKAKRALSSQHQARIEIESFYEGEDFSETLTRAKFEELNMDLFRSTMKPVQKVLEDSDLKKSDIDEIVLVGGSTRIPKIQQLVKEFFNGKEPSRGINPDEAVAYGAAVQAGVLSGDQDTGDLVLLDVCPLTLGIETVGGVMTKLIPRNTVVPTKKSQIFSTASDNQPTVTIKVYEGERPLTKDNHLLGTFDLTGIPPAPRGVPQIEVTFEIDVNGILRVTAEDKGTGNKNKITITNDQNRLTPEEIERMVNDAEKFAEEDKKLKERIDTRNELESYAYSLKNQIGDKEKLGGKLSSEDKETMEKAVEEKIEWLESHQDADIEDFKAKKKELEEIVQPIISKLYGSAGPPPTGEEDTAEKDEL
UniProt P28799, residues 18-593: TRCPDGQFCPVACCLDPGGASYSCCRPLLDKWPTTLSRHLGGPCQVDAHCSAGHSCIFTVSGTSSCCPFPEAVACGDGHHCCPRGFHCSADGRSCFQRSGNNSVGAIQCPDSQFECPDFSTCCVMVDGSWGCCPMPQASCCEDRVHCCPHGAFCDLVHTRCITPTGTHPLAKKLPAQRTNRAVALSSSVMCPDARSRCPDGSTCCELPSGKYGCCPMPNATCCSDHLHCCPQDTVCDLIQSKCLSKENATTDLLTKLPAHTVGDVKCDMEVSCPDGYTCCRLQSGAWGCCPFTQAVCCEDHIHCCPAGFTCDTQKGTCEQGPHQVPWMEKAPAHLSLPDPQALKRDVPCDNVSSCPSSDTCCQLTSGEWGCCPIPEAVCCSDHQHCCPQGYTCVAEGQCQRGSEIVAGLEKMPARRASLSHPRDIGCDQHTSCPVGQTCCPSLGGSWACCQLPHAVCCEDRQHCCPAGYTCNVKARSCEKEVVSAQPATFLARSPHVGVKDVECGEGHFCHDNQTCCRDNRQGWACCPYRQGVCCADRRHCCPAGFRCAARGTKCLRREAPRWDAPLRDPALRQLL
UniProt P50990: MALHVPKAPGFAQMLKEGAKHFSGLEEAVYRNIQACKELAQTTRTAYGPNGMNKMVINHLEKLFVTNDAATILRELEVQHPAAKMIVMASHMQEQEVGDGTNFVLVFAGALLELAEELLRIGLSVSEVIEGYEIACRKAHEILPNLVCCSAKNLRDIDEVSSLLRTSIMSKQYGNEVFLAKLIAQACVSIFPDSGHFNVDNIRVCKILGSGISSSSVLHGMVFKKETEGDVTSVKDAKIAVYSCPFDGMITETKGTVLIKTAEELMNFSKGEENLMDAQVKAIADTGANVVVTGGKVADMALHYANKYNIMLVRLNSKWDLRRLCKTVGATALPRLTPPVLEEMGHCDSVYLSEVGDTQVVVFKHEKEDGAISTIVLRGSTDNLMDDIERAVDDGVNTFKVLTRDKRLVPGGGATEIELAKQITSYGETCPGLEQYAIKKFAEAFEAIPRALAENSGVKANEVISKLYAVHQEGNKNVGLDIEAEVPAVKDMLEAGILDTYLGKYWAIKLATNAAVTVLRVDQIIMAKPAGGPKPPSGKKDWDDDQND
UniProt Q99873: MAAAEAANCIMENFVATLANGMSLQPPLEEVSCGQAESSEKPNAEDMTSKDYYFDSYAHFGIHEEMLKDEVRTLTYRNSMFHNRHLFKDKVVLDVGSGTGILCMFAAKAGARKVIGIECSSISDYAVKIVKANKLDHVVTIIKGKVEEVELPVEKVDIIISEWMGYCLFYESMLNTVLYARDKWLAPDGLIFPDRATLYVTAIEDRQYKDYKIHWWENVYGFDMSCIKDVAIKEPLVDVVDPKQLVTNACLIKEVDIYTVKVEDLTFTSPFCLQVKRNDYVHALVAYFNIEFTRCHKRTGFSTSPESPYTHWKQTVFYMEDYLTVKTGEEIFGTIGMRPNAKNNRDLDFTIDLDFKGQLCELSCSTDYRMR

B1: Serpin H1 (protein, UniProt P50454 19-418)
chain: AEVKKPAAAAAPGTAEKLSPKAATLAERSAGLAFSLYQAMAKDQAVENILVSPVVVASSLGLVSLGGKATTASQAKAVLSAEQLRDEEVHAGLGELLRSLSNSTARNVTWKLGSRLYGPSSVSFADDFVRSSKQHYNCEHSKINFRDKRSALQSINEWAAQTTDGKLPEVTKDVERTDGALLVNAMFFKPHWDEKFHHKMVDNRGFMVTRSYTVGVMMMHRTGLYNYYDDEKEKLQIVEMPLAHKLSSLIILMPHHVEPLERLEKLLTKEQLKIWMGKMQKKAVAISLPKGVVEVTHDLQKHLAGLGLTEAIDKNKADLSRMSGKKDLYLASVFHATAFELDTDGNPFDQDIYGREELRSPKLFYADHPFIFLVRDTQSGSLLFIGRLVRPKGDKMRDEL
B2: GRXCR2 (protein, UniProt A6NFK2 1-248)
chain: MEDPEKKLNQKSDGKPRKVRFKISSSYSGRVLKQVFEDGQELESPKEEYPHSFLQESLETMDGVYGSGEVPRPQMCSPKLTAQRISVFREGNAYTLAGGQPRFNDYKANDHKPLPIIDFGKIIIYTNNLKIIRTPMDKRDFVRKILQKEEEAEEESLMNKEESYGGRDQHDRPLVEAESTLPQNRYTQEGDIPEDSCFHCRGSGSATCSLCHGSKFSMLANRFKESYRALRCPACNENGLQPCQICNQ
B3: BLOC1S2 (protein, UniProt Q6QNY1 1-142)
chain: MAAAAEGVLATRSDEPARDDAAVETAEEAKEPAEADITELCRDMFSKMATYLTGELTATSEDYKLLENMNKLTSLKYLEMKDIAINISRNLKDLNQKYAGLQPYLDQINVIEEQVAALEQAAYKLDAYSKKLEAKYKKLEKR
B4: BBS4 (protein, UniProt Q96RK4 1-519)
chain: MAEERVATRTQFPVSTESQKPRQKKAPEFPILEKQNWLIHLHYIRKDYEACKAVIKEQLQETQGLCEYAIYVQALIFRLEGNIQESLELFQTCAVLSPQSADNLKQVARSLFLLGKHKAAIEVYNEAAKLNQKDWEISHNLGVCYIYLKQFNKAQDQLHNALNLNRHDLTYIMLGKIHLLEGDLDKAIEVYKKAVEFSPENTELLTTLGLLYLQLGIYQKAFEHLGNALTYDPTNYKAILAAGSMMQTHGDFDVALTKYRVVACAVPESPPLWNNIGMCFFGKKKYVAAISCLKRANYLAPFDWKILYNLGLVHLTMQQYASAFHFLSAAINFQPKMGELYMLLAVALTNLEDIENAKRAYAEAVHLDKCNPLVNLNYAVLLYNQGEKKNALAQYQEMEKKVSLLKDNSSLEFDSEMVEMAQKLGAALQVGEALVWTKPVKDPKSKHQTTSTSKPASFQQPLGSNQALGQAMSSAAAYRTLPSGAGGTSQFTKPPSLPLEPEPAVESSPTETSEQIREK

The molecules below were run against Glucose regulated protein 78 (GRP78) (human (endogenous in OECM1, FaDu, BM2, NPC076)) (UniProt P11021) (assay: co-IP; plasma membrane (PM) proteins of OECM1, FaDu, BM2 or NPC076 cells incubated with anti-GRP78 antibody or isotype control immunoglobulin at 4 °C overnight, 2% CHAPS, protein A/G agarose beads, washed twice with PBS; western blot of the candidates).

binding, binds:
Progranulin (from UniProt P28799 18-593), TCP-1 theta (from UniProt P50990 1-548), PRMT1 (from UniProt Q99873 1-371), B1, B2, B3, B4
